Source: PubChem BioAssay AID1347426 (Functional Genomics Laboratory (NCATS/FGL), 2020)
About 1,400 (4.5%) of roughly 31,000 sequences were called active.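 The calls were made as follows: active = median seed-adjusted z-score above 1 or below -1; inactive = the rest.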 The list shows a part of the results.

Experiment: Novel Modifiers of Survival Motor Neuron (SMN) Protein: Gene Identification via Genome-wide siRNA Screen;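 also: luminescence tracks full-length SMN protein made from the SMN2 reporter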
Settings: HEK293T SMN2-luciferase reporter, siRNA knockdown, 72 h; actives lie on both sides
In short: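 HEK293T cells stably carrying an SMN2 promoter/splicing cassette–luciferase reporter were reverse-transfected with 1 pmol siRNA per well (druggable-genome library, 3 siRNAs per gene) and grown 72 h at 37 °C. Luminescence, normalized to negative-control siRNA and log10-transformed, was scored as MAD.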

| Sequence | median seed-adjusted z-score |
| --- | --- |
| CAGUCCUCUUUGACAUUUATT against ANXA11 | inactive: 0.21 |
| GGUGUUUGCUGAACAUCGATT against PRCP | inactive: -0.481 |
| GCCUAGAUCUCAGGAGUUATT against ABAT | inactive: 0.0191 |
| UGGUGGGAGUGAAAGCAGATT against EXOSC7 | inactive: 0.0148 |
| GGCUGGAUGUCUUGAUCAATT against RDH14 | inactive: 0.0287 |
| GAACGAUUGUGGACCCUAUTT against TMEM8 | inactive: -0.551 |
| GUCUCAUCGUACUUCGGAATT against UTRN | inactive: 0.909 |
| CCAGUGAGAUAGAAAGUGATT against BTN3A2 | inactive: 0.402 |
| GAUGGUUAUUGAUUCAGGATT against KPNA3 | inactive: 0.383 |
| CCAAGUUGAUUUGAGAACATT against HHIP | inactive: 0 |
| CUAGUGAACUGAUAGACCATT against RASAL2 | inactive: 0 |
| CCAAAUUCCGCUCUCAUGATT against SFRS9 | inactive: -0.144 |
| GGAAUUGUGGGUGCAUUAATT against WASL | inactive: 0.143 |
| CAGUCCUUGUUAACCAACATT against ZNF514 | inactive: 0.125 |
| AGUCAAUAUUGAGGCAAGATT against PCDHB13 | inactive: -0.293 |
| GCGACGAACUGAGCUGUAATT against FKBP2 | inactive: -0.0466 |
| CAGCUAAUGUUGGAUUGUUTT against EPHA7 | inactive: -0.172 |
| GAUGCGCACUCAGUCCUUATT against MLLT4 | inactive: -0.0762 |
| ACACCAAGCGGGUCAUUCATT against MYH7B | inactive: -0.0322 |
| AGACCUUUCCAUUCGCCUUTT against PITX3 | inactive: 0 |
| UGGUAGCAUUAUUAUCCAATT against SMA4 | inactive: 0.291 |
| GGCCUAUGCUUACUCGGAUTT against ZNF509 | inactive: 0 |

| Sequence | median seed-adjusted z-score |
| --- | --- |
| GGAUUUGUGAGAUAUGAGATT against PABPC5 | inactive: -0.428 |
| GAAUCUUGCUGACUAUACATT against PASK | inactive: 0 |
| CGUGUAGAGAGGAACAAGATT against PPEF1 | inactive: -0.58 |
| CCAUCGAUGAGAUCCAGAATT against DDB1 | inactive: 0.231 |
| CUACCAACGUGACAGGUGATT against FBP1 | inactive: -0.221 |
| GGAAGAUGGAGACUAUCAATT against MIPEP | inactive: -0.169 |
| GCCCGUCUAUGACAAGAAATT against RELB | active: 1.16 |
| CAAGAAUGAUGCCUACUUUTT against CA11 | inactive: -0.0741 |
| GAUUGUCCUUUGCCUAAAATT against SLC16A9 | inactive: 0.125 |
| AGUACAGGAUGCAUUCUUATT against DMRT1 | inactive: 0 |
| GAAGCUGACUAAUGCAUUATT against DTNA | inactive: 0 |
| GAAGCAUCUCCAAAACGUATT against ERAP1 | inactive: -0.0666 |
| CCUUUACAAAUAACGGAUATT against NHLRC2 | inactive: 0.548 |
| GCAUCAUCGAGAACCGCAATT against SRL | inactive: 0.148 |
| CAAUCGUCUGUACUAUGAATT against PHKA1 | inactive: 0.286 |
| CGGCUUACACCAACACGCATT against HOXB2 | inactive: 0.271 |
| ACCCUGGAGUUGUCAGGGATT against CLDN9 | inactive: 0.398 |
| GAGUUGUUGUUAGAUCGAATT against HELLS | inactive: 0.192 |
| GGUCGGAUCUUUGAGCUGATT against TNRC4 | inactive: 0.801 |
| GGACUUCAAACGCAAGUUUTT against ABHD4 | inactive: -0.054 |
| GCCUUAAAAAGCACCAAAATT against ZNF16 | inactive: 0 |
| CCAUUGGACGGGUACUUCATT against MED12 | inactive: -0.896 |

| Sequence | median seed-adjusted z-score |
| --- | --- |
| GCUCAUCUCCGGCAAAAUATT against PNPLA3 | inactive: -0.0642 |
| GGGCUUUUAUUGCGACCAATT against NCOA3 | inactive: -0.594 |
| GGCAGAAUCUGUUUACGAATT against CADM1 | inactive: 0.419 |
| GGUUGUCAGUCUUUAGUAATT against ZNF208 | inactive: 0.265 |
| GAUGAGUGCUGCUUCCGGATT against IGF1 | inactive: 0.559 |
| GCACCAUCCUCACACCUCUTT against TWIST1 | inactive: -0.159 |
| GGCUUCUCGUCGAGCACUATT against ESPN | inactive: 0 |
| AGAAAUGGGUGGAGACAUUTT against CYP4A11 | inactive: -0.762 |
| GCUGGAUGGUAUUCGAAAATT against UQCRB | inactive: 0.348 |
| CAACAGCAAUUACACCGAUTT against TMPRSS13 | inactive: 0.0584 |
| AGGAUAUGCUGUCAAUGUATT against NSDHL | inactive: 0.716 |
| GGAGAAGGAGUAUUGACUATT against PLEKHF2 | inactive: 0.0967 |
| GGUCAUUCAGUAUAACGAATT against ZFHX4 | inactive: 0.0868 |
| CCGCAGCUGUCUUCACAAATT against ALDH2 | inactive: -0.216 |
| UGCUGUUGGUCUCAGCUGATT against TNFRSF10B | inactive: 0.064 |
| GCCGAGCAGUUACAAGACATT against EXOSC8 | inactive: 0.203 |
| GGCAAUUGAUCGACCAGGATT against THSD4 | inactive: 0.0657 |
| GGGUGUUUGGGAAUAAGAATT against COASY | inactive: 0 |
| GCACUUACAACGACAUAUUTT against ZNF644 | inactive: 0.389 |
| CCUGCUGAGUUCAAACAGATT against AP2A2 | inactive: 0.158 |
| GAAGGAGGGUGACCUGAUATT against LMNA | inactive: -0.409 |
| GAGGGACCAUAGUAGAUCATT against CPSF6 | active: -2.38 |

| Sequence | median seed-adjusted z-score |
| --- | --- |
| GAUACGUGGUUCUAGAUGATT against LAMA4 | inactive: 0.691 |
| GCAUCCUGACGGUUGAUGUTT against GALR2 | inactive: -0.0832 |
| CAUGUAAACUUGCUGUUUUTT against CKS1B | inactive: 0.00314 |
| GGCUUAGGGUAUUUCUACATT against SLC37A1 | inactive: -0.102 |
| GGAGUUCGUCUGUCAGUAUTT against ZBTB38 | inactive: 0.448 |
| CCAGCUCUGUCACCGUUGUTT against PTPRCAP | inactive: 0.372 |
| GGCUUCAGCGUGUCCCAUATT against GUK1 | inactive: -0.339 |
| GAGCCACACUUUCAAGUAATT against CRIP1 | inactive: -0.622 |
| CCAUGAGUGUUGAUCGAUATT against OPRM1 | inactive: -0.00476 |
| GCAUCGAUCCGGUUCAAGATT against TTLL9 | inactive: 0.0534 |
| GGAGUUGUCCAGUACCCAATT against AGXT2 | inactive: 0.17 |
| GGGUUUUCAUUCAGAUGAATT against MLL4 | inactive: -0.259 |
| GAGACAGCCUGAUGGAGAATT against STC1 | active: -1.36 |
| AGCCUAUGGUCGGAACGAATT against APOBEC3F | inactive: -0.315 |
| GGAACCGUCUUGUCAAUGATT against SLITRK2 | inactive: -0.246 |
| CCCUUUCACCCUGAAUAUATT against SERPINA9 | inactive: 0.497 |
| GCCUGUCCCUAGCAUUGUUTT against CES2 | inactive: -0.47 |
| CCACACCAUUAUGACCAUUTT against FUT1 | inactive: 0.000845 |
| CUCAAACUCUGGAACCUGATT against USP18 | inactive: -0.326 |
| GGACCAAGCCCUAAAGGAATT against 4-Sep | inactive: -0.0124 |
| GGAUGUCGCAUCAAUAAUATT against CNGB3 | inactive: 0.226 |
| CCAAUCUCCUGAAACAUCATT against ZFP41 | inactive: 0 |

| Sequence | median seed-adjusted z-score |
| --- | --- |
| GAAGCAGUGCCAAUGAACATT against TCEB2 | active: 1.28 |
| CCUAGUCUCUCGUAUCCCATT against ENPP6 | inactive: -0.548 |
| CUACCAGUCUGCUUAGUUUTT against ALG6 | inactive: 0.106 |
| GUCUCUUAAAGUUCGAGAATT against KIF13A | inactive: 0 |
| CACCGGCCUUUAUUCCACATT against DNPEP | inactive: -0.293 |
| GGAUCUCAUAGACCGAGGATT against ATE1 | inactive: 0.569 |
| GGAUGCUACAUUGAUUUUUTT against FKBP7 | inactive: -0.053 |
| CGGCUUUUGCUAUGACCAATT against SERPINC1 | inactive: -0.0822 |
| GAGGAAUACUAGUAAACAATT against EIF3H | inactive: 0.449 |
| GAUCGUUUCCUAUACAGUATT against ESPL1 | inactive: 0.871 |
| CAUUUGUCGUGUAUGAAAATT against GPR63 | inactive: -0.0154 |
| CGACUGAACAAACCCUAUATT against ERCC3 | inactive: 0.155 |
| ACAGGCCUGUGAAACCCUATT against PEX5 | inactive: -0.0414 |
| GGAUGACUAAACAUAAGAATT against CCBL2 | inactive: 0.184 |
| CCAUCUACAAGUGUCCUUATT against ZNF276 | inactive: 0.318 |
| CGACCCUCAGAAUGAUAAATT against ARPC3 | inactive: -0.237 |
| GAGCUGACCCUGAACAUUATT against ITGAE | inactive: -0.0378 |
| GAAUGGAAGUAAUGAUUCUTT against TMPO | inactive: -0.0406 |
| CUGCAGAAGCGAUGCGAUATT against NAP1L5 | inactive: 0.115 |
| GAACAAGCCUACUGCUAUATT against TKTL2 | inactive: -0.0379 |

Some values from the list.
Value of GGUCGGAUCUUUGAGCUGATT against TNRC4 under median seed-adjusted z-score: inactive: 0.801
Value of GGCUUCAGCGUGUCCCAUATT against GUK1 under median seed-adjusted z-score: inactive: -0.339
Value of GCCUAGAUCUCAGGAGUUATT against ABAT under median seed-adjusted z-score: inactive: 0.0191
Value of CCAUCUACAAGUGUCCUUATT against ZNF276 under median seed-adjusted z-score: inactive: 0.318
Value of GGAGAAGGAGUAUUGACUATT against PLEKHF2 under median seed-adjusted z-score: inactive: 0.0967
Value of CUACCAGUCUGCUUAGUUUTT against ALG6 under median seed-adjusted z-score: inactive: 0.106
